Results deposited as PubChem BioAssay AID1159578 (Peter MacCallum Cancer Centre, 2015).
Assay: 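Knock-downs that alter how fast lymphatic endothelial cells migrate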 (primary screen). System: human lymphatic endothelial cells. Reagent: siRNA pool against human genes, 40 nM. Duration: 48 h after transfection. Read-out: 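Cells stained with dye and imaged after a scratch; covered wound area and nuclei counted, duplicates averaged, migration set against mock wells and turned into a robust z-score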. Scale: migration robust z-score: higher = faster migration into the scratch; nuclei per well: higher = more cells in the well. Hit rule: 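Migration changed when robust z exceeds 2 or falls below -2 and mean nuclei number is at least 3300; otherwise not called changed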. Meaning of the calls: active = migration changed; inactive = no migration change, or too few cells.
The deposit covers about 18,000 reagents; below is a part drawn at random. Over the whole deposit, about 1,030 (5.7%) were called active. 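Inactive calls also include pools with fewer than 3300 nuclei, whose migration was not assessed.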 Raw values vary from plate to plate and are shown uncorrected. Entries without a mark were called inactive. Further read-outs or replicates are left out here. Reagent sequences are not shown.

FGF8 (GeneID 2253) gave migration robust z-score 1.14; nuclei per well, duplicate mean 5618.
COL14A1 (GeneID 7373) showed migration robust z-score -2.64; nuclei per well, duplicate mean 3126.
Against GDA (GeneID 9615) the deposit lists migration robust z-score 0.68; nuclei per well, duplicate mean 6269.
Knock-down of SPO11 (GeneID 23626) came out at: migration robust z-score -1.09; nuclei per well, duplicate mean 6029.
Knock-down of THEMIS2 (GeneID 9473) resulted in: migration robust z-score 0.84; nuclei per well, duplicate mean 5897.
DIXDC1 (GeneID 85458) scored migration robust z-score -1.21; nuclei per well, duplicate mean 4768.
Against GBA2 (GeneID 57704), the values are migration robust z-score 0.47; nuclei per well, duplicate mean 5560.
After knock-down of NAXD (GeneID 55739), the record shows migration robust z-score -0.74; nuclei per well, duplicate mean 4863.
Depletion of COPS2 (GeneID 9318) resulted in: migration robust z-score 0.1; nuclei per well, duplicate mean 5480.
Against SRRD (GeneID 402055), the values are migration robust z-score 0.26; nuclei per well, duplicate mean 6048.
With knock-down of ATP6V1H (GeneID 51606) the results were migration robust z-score -1.06; nuclei per well, duplicate mean 6183.
After knock-down of HACD4 (GeneID 401494) the results were migration robust z-score -0.95; nuclei per well, duplicate mean 6614.
After knock-down of NSUN6 (GeneID 221078) the results were migration robust z-score 0.32; nuclei per well, duplicate mean 5789.
PDPK1 (GeneID 5170) scored migration robust z-score 0.02; nuclei per well, duplicate mean 6484.
